Test results taken from paper PMC12040169 (PLOS Biology, 2025).
The other results are listed elsewhere or left out.

Tested on: T1, CTL2-GFP (C. trachomatis L2/434/Bu, GFP-expressing)
T1 construct: L2/434/Bu, GFP-expressing
Design: species or system HeLa; Intracellular C. trachomatis growth in HeLa cells, bulk GFP fluorescence relative to DMSO
Settings: bulk GFP, single well; 28.5 h, 10 µM; inhibitor

SMILES	% of control remaining
CCN(Cc1ccncc1)C(=O)NCCCN1CCN(C)CC1 [CBK155123]	114.741%
Fc1ccc(-c2cn(-c3ccc4c(c3)CCO4)nn2)cc1 [CBK113132]	84.8245%
CC1(C)CC(=O)C=C(C(=O)NCc2c(F)cccc2F)O1 [CBK153287]	100%
N#Cc1ccc(CN2C[C@@H]3OCC(=O)N[C@@H]3C2)cc1 [CBK289261]	135.76%
Cc1nn(CCC(=O)NC(c2ccccc2)c2cccnc2)c(C)c1C (stereo not drawn) [CBK282547]	111.624%
COc1ccccc1NC(=O)COc1ccc(C)cc1[N+](=O)[O-] [CBK269724]	131.048%
O=C(Cc1ccc(F)cc1)Nc1nc(-c2cccs2)cs1 [CBK287736]	83.4387%
COc1cc(NS(=O)(=O)c2ccc(Nc3nc(-c4sc(N)nc4C)cs3)cc2)nc(OC)n1 [CBK262796]	31.0041%
COc1cccc(CN[C@@H]2CCC[C@H]2Cc2cc(C)no2)c1 [CBK283006]	94.2705%
CCOc1ccc2nc(NS(=O)(=O)c3cccc(C(=O)O)c3)sc2c1 [CBK161137]	119.113%
Cc1cc(C)c2c(c1)cc(C)c1nn(CC(=O)NC3CC3)c(=O)n12 [CBK283877]	107.463%
CCCNC(=O)Cn1cnc2sc(C(=O)Nc3ccccc3OC)c(C)c2c1=O [CBK071910]	129.843%
CC1(C)Cc2cccc(OCC(=O)O)c2O1 [CBK270161]	132.879%
Nc1nnc(SC/C=C/CSc2nnc(N)s2)s1 [CBK263092]	118.463%
Cc1ccc(C(=O)NCc2ccc3c(c2)CCO3)c(N2CCOCC2)n1 [CBK106202]	104.406%
CC(C)c1cc(C(=O)N2CCN(C)C(=O)C2Cc2ccccc2-c2ccc(F)cc2)[nH]n1 (stereo not drawn) [CBK285833]	131.882%
C/C(=C(/C(=O)N(N)c1nc2ccccc2s1)C(=O)C(F)(F)F)N1CCC(C(N)=O)CC1 [CBK265758]	100%
Cc1cc(C)n(CCCC(=O)N2C[C@H]3CCc4c[nH]nc4[C@H]3C2)n1 [CBK284573]	71.7334%
O=S(=O)(NCCCn1ccnc1)c1cc(Cl)ccc1Cl [CBK261767]	100%
Cc1nnc2sc(-c3ccc(CNC(=S)NC(=O)c4ccccc4[N+](=O)[O-])cc3)nn12 [CBK268588]	153.598%
CCC(CC)C(=O)N1CCC(c2nnc3n2CCCCC3)CC1 [CBK284614]	160.136%
O=C(NC(=S)Nc1ccc(-c2ccc(CO)o2)cc1)c1ccc2c(c1)OCCO2 [CBK269038]	140.442%
COc1ccc(-c2nn(-c3ccccc3)cc2/C=C2\SC(N3CC(C)OC(C)C3)=NC2=O)cc1F (stereo not drawn) [CBK265613]	112.331%
CS(=O)(=O)c1ncc(Cl)c(C(=O)N(Cc2ccccc2)c2ccccn2)n1 [CBK269489]	52.4801%
CCc1ccc(OC)c(S(=O)(=O)N2CCOCC2)c1 [CBK268214]	84.2438%
COc1ccc2c(c1)c1nc(C)sc1n2CCN1CCCCC1 [CBK269909C]	116.942%

SMILES	% of control remaining
Cn1cc(C2CCCN2C(=O)Cc2csc3ccccc23)cn1 (stereo not drawn) [CBK305066]	129.102%
O=C(CN1C(=O)N2CCCN=C2c2ccc(Cl)cc21)N1CCCC1 [CBK284387]	118.32%
Cn1ccnc1SCC(=O)Nc1ccc(S(N)(=O)=O)cc1 [CBK263190]	113.342%
CC(=O)C(Sc1ccc2nnc(-c3ccc(C)cc3)n2n1)C(C)=O [CBK287525]	115.909%
Cc1noc(C)c1NC(=O)c1ccccn1 [CBK200299]	87.7461%
Fc1ccccc1CN(CCCn1ccnc1)CC1CCOC1 (stereo not drawn) [CBK283031]	110.349%
O=C(N[C@@H](Cn1cc(Cl)c(=O)[nH]c1=O)C(=O)O)C1CC1 [CBK289649]	102.374%
CCCC(=O)NCC1Cc2cc(F)cc(-c3ccc(C(C)=O)s3)c2O1 (stereo not drawn) [CBK306945]	103.884%
CNC(=O)C1(Cc2ccccc2-c2cccc(F)c2)CCN(C(=O)Cc2ccccc2)CC1 [CBK285692]	98.876%
Cc1ccc(NC(=O)/C=C/C(=O)O)c(NC(=O)c2ccccc2)c1 [CBK286563]	107.936%
CS(=O)(=O)c1ccc(-c2ccc(N)c3ccccc23)cc1 [CBK084326]	110.864%
CN(C(=O)Cn1cccc(C(=O)NCC(C)(C)c2ccc(F)cc2)c1=O)C1CCCCC1 [CBK286112]	88.0601%
O=C(Nc1ccc(-c2ccc(NC(=O)c3ccncc3)cc2)cc1)c1ccncc1 [CBK262321]	95.7097%
CC(C)Nc1cc(SCCN(C)C)ncn1 [CBK105616]	89.1382%
Nc1nc(O)c2c(n1)NC1(CCC1)[C@@H]1C[C@@H](O)[C@@H](O)[C@H]21 [CBK303248]	86.231%
Cc1cccc(C)c1NC(=O)C(=O)NCCCN1CCOCC1 [CBK264850]	100%
Cc1cc(C(=O)CSc2nnc(N3CCCC3)n2C2CC2)c(C)n1C [CBK306051]	156.629%
Cc1ncc(C(=O)NC2(c3ccccc3F)CCCC2)c(C)n1 [CBK283274]	138.093%
Cc1cc(C)n(C)c(=O)c1C(=O)NCCCc1ccc(Cl)cc1 [CBK281566]	124.711%
Cc1cc(C)n(CC2CCCCN2C(=O)COc2cccnc2)n1 (stereo not drawn) [CBK304040]	105.23%
Cc1ccc2c(c1)nc(CNC(=O)NCCCO)n2C [CBK306174]	104.11%
CN(C)CCNc1nc(-c2ccncc2)cnc1N [CBK063580]	155.868%
COc1ccc(-n2[nH]c(C)c(Cc3c(Cl)cccc3Cl)c2=O)cc1 [CBK084521]	105.014%
COc1cccc(C2(NC(=O)c3cnsc3)CCCC2)c1 [CBK283611]	121.549%
CCN(Cc1ccncc1)C(=O)NCc1cc(C)on1 [CBK155122]	123.131%
CC(=O)Nc1ccc(S(=O)(=O)Nc2ccc(S(=O)(=O)Nc3ccc(C)c(C)c3)cc2)cc1 [CBK264643]	88.0059%

Ordered by count of non-hydrogen atoms (descending): part of the list above.
SMILES	% of control remaining
CNC(=O)C1(Cc2ccccc2-c2cccc(F)c2)CCN(C(=O)Cc2ccccc2)CC1 [CBK285692]	98.876%
Cc1cc(C)n(C)c(=O)c1C(=O)NCCCc1ccc(Cl)cc1 [CBK281566]	124.711%
COc1cccc(C2(NC(=O)c3cnsc3)CCCC2)c1 [CBK283611]	121.549%
O=C(N[C@@H](Cn1cc(Cl)c(=O)[nH]c1=O)C(=O)O)C1CC1 [CBK289649]	102.374%
Cc1noc(C)c1NC(=O)c1ccccn1 [CBK200299]	87.7461%

Additional compounds:

SMILES	% of control remaining
CC(C)[C@H](CO)Nc1nccnc1-c1cccs1 [CBK089047]	164.852%
COc1ccc(CN(C)C2CCOCC2)cc1Cn1cncn1 [CBK306728]	105.948%
CN1CCC(CNS(=O)(=O)c2cccc3c2OCC3)CC1=O (stereo not drawn) [CBK305465]	86.8557%
O=C(NC1CC1)c1ccc(-c2cnc3[nH]c(=O)n(-c4ccc5[nH]ccc5c4)c3n2)cc1 [CBK064916]	188.746%
COc1ccc(C[C@@H]2NC(=O)[C@@H]3CN(C(=O)c4ccc(OC)cc4)CCN3C2=O)cc1 [CBK289598]	133.391%
O=C(CNC1Cc2ccccc2C1)Nc1ccc(Cl)cc1C(=O)c1ccccc1Cl [CBK074764]	83.7879%
Cc1c(C(=O)NCc2ccccn2)nnn1-c1cccc(C(F)(F)F)c1 [CBK107395]	98.5611%
Cc1cc(C)c(CNC(=O)C2CC(=O)N(Cc3ccccn3)C2)cn1 (stereo not drawn) [CBK304673]	136.29%
O=C(c1ccc(S(=O)(=O)N2CCCCC2)cc1)N1CCN(CCN2C(=O)c3cccc4cccc(c34)C2=O)CC1 [CBK262536]	100%
CCn1c(C)cc(C(=O)CSc2nnc(N3CCCC3)n2C2CC2)c1C [CBK306035]	133.324%
COc1cc(C(=O)NCc2c(-c3ccccc3)noc2C)cc(OC)c1OC [CBK144097]	88.5366%
O=C1/C(=C/c2cn(Cc3cccc4ccccc34)c3ccccc23)C(O)=NN1c1ccccc1 [CBK264849]	100%
Nc1nc2sc3c(c2cc1C(=O)N1CCOCC1)CCCC3 [CBK022399]	112.385%
COc1ccc(C(=O)N2CCC3(CCN(Cc4ccc(OC(F)(F)F)cc4)C3)C2)cc1OC (stereo not drawn) [CBK132148]	108.568%
Cc1nc(C2CCCN(C(=O)c3cnn(C)c3)C2)c2sccn12 (stereo not drawn) [CBK285236]	150.404%
CC(C)(C)OC(=O)N1CCC[C@]2(CCC(=O)N2)[C@H]1c1cccc(F)c1 [CBK283463]	154.661%
O=C(O)Cn1c2ccc(Br)cc2c2nc3ccccc3nc21 [CBK266416]	222.165%
CC(=O)c1ccc(NC(=O)c2cccc(S(=O)(=O)N3CCCCC3)c2)cc1 [CBK263246]	100%
Cc1ccc(C(=O)Nc2ccc(N3CCCCC3)c(F)c2)c(=O)n1C [CBK281390]	131.691%
O=C(CCCn1ccnc1)NC(Cc1cccs1)c1nccs1 (stereo not drawn) [CBK285094]	129.478%
COc1cccc(C(=O)COC(=O)c2ccc3c(c2)C(=O)N(c2ccc(C(C)=O)cc2)C3=O)c1 [CBK264872]	100%
COc1ccc(-c2cc(C(=O)NCC(F)(F)F)cnc2-c2ccc(Cl)cc2)cn1 [CBK036698]	109.037%
O=S(=O)(Cc1ccc(Cl)cc1)NCCCn1ccnc1 [CBK268372]	108.882%
O=C(Cn1c(=O)n(Cc2cccs2)c2ncccc21)N1CCCC1 [CBK283894]	151.018%
O=[N+]([O-])c1ccc(-c2ccc(/C=N/Nc3nnc4c(n3)[nH]c3ccccc34)o2)cc1 [CBK262029]	111.328%
COCCN1C(=O)C2(CC(=O)N(CCc3scnc3C)C2=O)c2cc(Cl)ccc21 (stereo not drawn) [CBK075321]	90.8105%
